Results are given in words; binding and its absence hold for the method and conditions named. Some entries that bind do so weakly or less than the wild type.
How the values were obtained:
mouse Fzd-1 (mouse) [1] = molecular target: mouse Fzd-1 (mouse) (UniProt O70421); test: competition with rhodamine-labeled UM206 on kidney and small intestine sections
mouse Fzd-2 (mouse) [2] = molecular target: mouse Fzd-2 (mouse) (UniProt Q9JIP6); test: as above
mouse Fzd-1 (mouse) [3] = molecular target: mouse Fzd-1 (mouse) (UniProt O70421); test: pre-incubation with UM207 (1.10^-8 M) abolished UM206-rhodamine staining of mouse kidney and gut sections
mouse Fzd-2 (mouse) [4] = molecular target: mouse Fzd-2 (mouse) (UniProt Q9JIP6); test: as above

Measured: binding

GIKECQYQFRHRRWNCSTVD (N-terminal acetyl (Ac-); C-terminal amide (-NH2)) [Peptide UM207]
binds: mouse Fzd-1 (mouse) [1] | mouse Fzd-2 (mouse) [2] | mouse Fzd-1 (mouse) [3] | mouse Fzd-2 (mouse) [4]

Reference: patent US20120014876A1
